From PMC11388081 come the findings set out here.

Chains of the proteins cited; added tags and fusions are not shown. Lines headed by an entry give the natural chain unless they say otherwise; changes in a name come on top.
UniProt P11717: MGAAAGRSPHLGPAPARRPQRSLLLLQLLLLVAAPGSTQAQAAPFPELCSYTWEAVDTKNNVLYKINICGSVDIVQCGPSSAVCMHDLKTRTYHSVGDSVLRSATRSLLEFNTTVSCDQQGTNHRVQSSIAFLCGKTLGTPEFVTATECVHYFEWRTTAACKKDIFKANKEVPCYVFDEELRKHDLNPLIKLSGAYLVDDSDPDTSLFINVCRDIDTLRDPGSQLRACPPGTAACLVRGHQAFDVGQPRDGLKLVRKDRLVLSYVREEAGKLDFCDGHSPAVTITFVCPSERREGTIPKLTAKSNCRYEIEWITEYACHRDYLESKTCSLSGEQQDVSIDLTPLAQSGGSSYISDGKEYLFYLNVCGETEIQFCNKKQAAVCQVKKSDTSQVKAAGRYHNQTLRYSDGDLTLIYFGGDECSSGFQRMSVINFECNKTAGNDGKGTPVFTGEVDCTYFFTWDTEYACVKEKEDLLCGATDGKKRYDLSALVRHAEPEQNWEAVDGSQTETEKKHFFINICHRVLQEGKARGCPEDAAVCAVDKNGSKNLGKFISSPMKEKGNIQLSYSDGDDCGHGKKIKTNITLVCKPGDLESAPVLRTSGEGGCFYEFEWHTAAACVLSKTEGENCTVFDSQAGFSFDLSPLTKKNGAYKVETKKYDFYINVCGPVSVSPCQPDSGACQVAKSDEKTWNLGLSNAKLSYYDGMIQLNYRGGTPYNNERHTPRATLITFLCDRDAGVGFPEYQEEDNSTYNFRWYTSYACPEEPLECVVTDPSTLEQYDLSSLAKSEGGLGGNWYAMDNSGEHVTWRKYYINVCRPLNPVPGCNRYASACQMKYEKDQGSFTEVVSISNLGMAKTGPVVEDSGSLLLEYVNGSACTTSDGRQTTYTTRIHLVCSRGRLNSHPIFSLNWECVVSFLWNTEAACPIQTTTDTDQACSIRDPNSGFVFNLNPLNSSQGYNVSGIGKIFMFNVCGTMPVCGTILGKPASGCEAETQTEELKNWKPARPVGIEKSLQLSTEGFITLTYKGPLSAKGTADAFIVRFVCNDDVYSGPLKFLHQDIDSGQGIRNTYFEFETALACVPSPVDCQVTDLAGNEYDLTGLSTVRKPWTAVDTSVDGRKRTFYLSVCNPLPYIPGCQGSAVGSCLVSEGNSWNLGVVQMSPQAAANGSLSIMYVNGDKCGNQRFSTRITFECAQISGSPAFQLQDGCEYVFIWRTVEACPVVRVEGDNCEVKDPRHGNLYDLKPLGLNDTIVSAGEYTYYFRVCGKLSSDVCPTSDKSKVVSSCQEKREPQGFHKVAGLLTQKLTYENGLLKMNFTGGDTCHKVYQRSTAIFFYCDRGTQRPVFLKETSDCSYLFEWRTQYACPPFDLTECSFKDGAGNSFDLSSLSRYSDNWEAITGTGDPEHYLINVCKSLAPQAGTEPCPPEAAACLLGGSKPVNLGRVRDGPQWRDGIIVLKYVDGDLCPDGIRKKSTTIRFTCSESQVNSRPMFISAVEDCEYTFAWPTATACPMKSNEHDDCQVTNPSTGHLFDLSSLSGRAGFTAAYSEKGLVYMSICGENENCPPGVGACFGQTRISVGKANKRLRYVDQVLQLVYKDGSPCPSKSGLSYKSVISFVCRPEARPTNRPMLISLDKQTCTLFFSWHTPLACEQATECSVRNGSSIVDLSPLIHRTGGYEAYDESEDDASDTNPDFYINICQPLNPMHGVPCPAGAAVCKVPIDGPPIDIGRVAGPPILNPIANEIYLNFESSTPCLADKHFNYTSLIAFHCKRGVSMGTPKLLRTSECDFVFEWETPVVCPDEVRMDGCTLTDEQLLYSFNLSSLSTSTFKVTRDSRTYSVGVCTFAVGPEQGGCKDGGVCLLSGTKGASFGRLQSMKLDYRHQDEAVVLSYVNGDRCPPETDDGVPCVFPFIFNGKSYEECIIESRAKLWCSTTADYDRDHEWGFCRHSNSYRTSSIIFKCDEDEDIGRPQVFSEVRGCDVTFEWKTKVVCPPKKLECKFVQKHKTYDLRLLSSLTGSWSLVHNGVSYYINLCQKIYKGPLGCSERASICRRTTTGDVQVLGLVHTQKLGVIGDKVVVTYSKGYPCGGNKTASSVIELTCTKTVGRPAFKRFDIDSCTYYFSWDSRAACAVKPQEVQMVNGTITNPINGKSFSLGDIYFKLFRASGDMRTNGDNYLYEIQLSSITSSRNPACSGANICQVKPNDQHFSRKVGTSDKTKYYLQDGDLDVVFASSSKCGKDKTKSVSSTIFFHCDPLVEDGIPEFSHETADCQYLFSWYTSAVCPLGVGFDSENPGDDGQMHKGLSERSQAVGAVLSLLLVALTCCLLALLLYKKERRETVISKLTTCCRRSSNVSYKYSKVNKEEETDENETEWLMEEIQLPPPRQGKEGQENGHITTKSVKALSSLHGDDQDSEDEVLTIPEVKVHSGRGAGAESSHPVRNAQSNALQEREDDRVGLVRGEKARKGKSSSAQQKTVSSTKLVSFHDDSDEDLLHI

For part of these data: The comparison behind a weaker result is the experiment's own reference, which may not be listed here. For at least one entry, the source does not settle the construct or the ends of the probe. For part of these data: At least one result comes from cells or an extract, where the contact may be indirect. For part of these data: At least one verdict was read from the data and is not stated in words by the source.

Data set [1] deals with VEGF (HZ-1038, Proteintech). As to the kind of experiment: MST. To be noted: 20 mM CaCl2, 5'-phosphate on strand 1 (T4 DNA ligase step stated), MST: 5 nM Cy5-LYTAC, 20 mM Tris-HCl pH 8.5, 20 mM KCl, 20 mM CaCl2, 0.1% Tween 20, 10 min, temperature not stated, commercial protein.
The subject of a further data set is GST-M6PR. As to the kind of experiment: MST. To be noted: 5'-phosphate on strand 1 (T4 DNA ligase step stated), MST: 5 nM Cy5-LYTAC, 20 mM Tris-HCl pH 8.5, 20 mM KCl, 20 mM CaCl2, 0.1% Tween 20, 10 min, temperature not stated, protein in a lysate after overexpression, protein details: GST.
Another data set concerns the target M6PR (cell lysate) (UniProt P11717). Description: streptavidin pull-down. The note with it: DPBS-Mg buffer; 5'-phosphate on strand 1 (T4 DNA ligase step stated); pulldown: cell lysate with LYTAC in DPBS-Mg, 4 C, 4 h; protein in an extract.
Another data set deals with VEGF (cell lysate). Description: streptavidin pull-down. The note with it: DPBS-Mg buffer; 5'-phosphate on strand 1 (T4 DNA ligase step stated); pulldown: cell lysate with LYTAC in DPBS-Mg, 4 C, 4 h; protein in an extract.

Consider “CCCCCACACGTAAATCAGTCATAGGGCGCGTAGATGACGAGCAGTCCTAACATCGTTTAGGAC / TATGACTGATTTACGTGTGGGGGGCCCGTCTTCCAGACAAGAGTGCAGGGC [V6 (M6PR-A / VEGF-A3 LYTAC)]”, for which the binding result in data set [1] (Kd only in figure) is “binds”; with GST-M6PR (Kd only in figure, 20 mM CaCl2), “binds”; with M6PR (cell lysate) it was “binds”; with VEGF (cell lysate), “binds”.
For the sequence “CCCCCACACGTAAATCAGTCATAGGGCGCGTAGATGACGAGCAGTCCTAACATCGTTTAGGAC / TATGACTGATTTACGTGTGGGGGTGGACTGGGTGGGTACCC [V4 (M6PR-A / VEGF-A1 LYTAC)]”, the binding result in data set [1] (minimal binding) is “binds more weakly”; in the data set on GST-M6PR (binds, weaker than V5 and V6, 20 mM CaCl2), “binds more weakly”.
Regarding “CCCCCACACGTAAATCAGTCATAGGGCGCGTAGATGACGAGCAGTCCTAACATCGTTTAGGAC / TATGACTGATTTACGTGTGGGGGTGTGGGGGTGGACGGGCCGGGTAGA [V5 (M6PR-A / VEGF-A2 LYTAC)]”, the binding result is on record as “binds” in the data set with GST-M6PR (Kd only in figure, 20 mM CaCl2); “binds” in the data set with M6PR (cell lysate); “binds” in the data set with VEGF (cell lysate).
